From US20230116446A1
Results are given in words; binding and its absence hold for the method and conditions named. Some results given as binding are weak or reduced against the parent protein; the word gives no strength.

Molecular target: T1, human Claudin 18 splice variant 2 (hCLDN18.2) (human) (UniProt P56856)
T1 sequence (looked up): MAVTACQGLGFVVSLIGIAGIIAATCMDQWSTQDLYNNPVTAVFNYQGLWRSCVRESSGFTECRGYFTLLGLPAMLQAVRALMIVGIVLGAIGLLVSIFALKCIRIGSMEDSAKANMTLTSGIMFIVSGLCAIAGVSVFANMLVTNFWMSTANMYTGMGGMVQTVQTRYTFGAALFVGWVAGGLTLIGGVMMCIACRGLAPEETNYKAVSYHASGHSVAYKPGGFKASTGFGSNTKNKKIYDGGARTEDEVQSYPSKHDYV
Test: Flow cytometry on Expi293 cells stably expressing human CLDN18.2 (EF1a::huCLDN18.2); detection with APC-conjugated anti-human IgG F(ab')2; gMFI against mAb (nM)

B1: parental anti-hCLDN18.2 59F9E1 IgG1 antibody (antibody, V domains shown)
VH: QVQLVQSGAEVKKPGSSVKVSCKASGYTLTGYWIEWLRQRPGQGLEWMGEILLGSGSIKYNVKFKDRVTITADESTSTAYMELSSLRSEDTAVYYCARKGLRGNSFDYWGQGTLVTVSS
VL: DIVMTQSPSSLTVSLGEKATISCKSSQSLLNSGNQKSYLTWYQQKPGQPPKRLIYWASTRESGVPDRFSGSGSGTDFTLTISSLQAEDLAVYYCQNDYYYPFTFGQGTKVEIKR
binding: binds
